This assay concerns the target human CD2 on cells (MOLT-4 human T lymphoblast cells; primary human T-cells; primary human NK cells) (human) (UniProt P06729). The experiment in a line: flow cytometry on primary human T-cells, antibody titration, AF488 secondary, MFI. In general terms: In flow cytometry, cells or beads pass a laser one at a time.

By UniProt entry, the sequences of proteins in these tests, tags left out. Where a name states a change or a piece, a line headed by the entry shows the natural chain unless it says otherwise.
UniProt P06729: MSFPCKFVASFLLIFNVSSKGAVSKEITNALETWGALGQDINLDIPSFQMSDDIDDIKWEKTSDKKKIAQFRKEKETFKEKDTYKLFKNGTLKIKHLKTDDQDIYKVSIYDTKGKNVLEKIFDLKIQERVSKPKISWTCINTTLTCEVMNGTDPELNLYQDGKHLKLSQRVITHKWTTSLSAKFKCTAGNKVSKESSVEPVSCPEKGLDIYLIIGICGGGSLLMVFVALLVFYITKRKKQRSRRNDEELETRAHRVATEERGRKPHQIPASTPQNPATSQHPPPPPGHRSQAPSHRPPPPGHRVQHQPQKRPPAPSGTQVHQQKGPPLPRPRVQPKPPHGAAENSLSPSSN

Results on one molecule are retold here after patent US20200368363A1 (MAGENTA THEERAPEUTICS, published 2020).

These are yes or no findings as the source states them, for the method shown. Some binding calls cover weakened binding; strength is not graded here.

B1: RPA-2.10 mIgG1 (antibody, V domains shown)
VH: EVKLVESGGGLVKPGGSLKLSCAASGFTFSSYDMSWVRQTPEKRLEWVASISGGGFLYYLDSVKGRFTISRDNARNILYLHMTSLRSEDTAMYYCARSSYGEIMDYWGQGTSVTVSS
VL: DILLTQSPAILSVSPGERVSFSCRASQRIGTSIHWYQQRTTGSPRLLIKYASESISGIPSRFSGSGSGTDFTLSINSVESEDVADYYCQQSHGWPFTFGGGTKLEIER
For the molecule B1, the binding result is reported as “binds”.
